In patent US20100249419A1, “UTILIZATION OF NOVEL COMPOUNDS WITH AMYLOID AFFINITY AND METHOD OF PRODUCING THE SAME” (NIHON MEDI-PHYSICS CO., LTD., priority 2007, published 2010):
Some entries repeat one wording, which the source may state once for all of them.

Test system: aggregated Aβ (Aβ1-42) injected into amygdaloid nucleus
Test: Confirmation of imaging of amyloid in brain (ex vivo autoradiogram, Aβ1-42)
Parameters: species or system male Wistar rat
Settings: brain slice 60 minutes after tail vein injection
Experimental: The following experiment was carried out in order to examine whether amyloid in brain can be imaged by the compound of the present invention.
(1) Aβ1-42 (manufactured by Wako) was dissolved in phosphate buffer (pH 7.4) and shaken at 37° C. for 72 hours, to obtain a 1 mg/mL suspension of aggregated Aβ (hereinafter referred to as amyloid suspension in the Examples).
(2) 2.5 μL (corresponding to […]) of the amyloid suspension was injected into an amygdaloid nucleus on one side of a male Wistar rat (7-week old). As a control, 2.5 μL of a phosphate buffered physiological saline solution (pH 7.4) was injected into an amygdaloid nucleus on the other side of the rat. The rats were examined 1 day after the injection of the amyloid suspension and the phosphate buffered physiological saline solution (pH 7.4).
(3) Compound 1 was dissolved in a 10 mg/mL ascorbic acid-containing physiological saline solution to obtain a sample solution (22 MBq/mL in radioactivity concentration in the sample solution). This solution was injected under thiopental anesthesia into the rat through the tail vein (dosage: 0.5 mL, dosed radioactivity: 11-13 MBq equivalent).
(4) Brain was removed 60 minutes after the injection to prepare a brain slice of 10 μm in thickness with a microtome (type: CM3050S, manufactured by LEICA). The brain slice was exposed to an imaging plate for 20 hours, and then image analysis was carried out by use of a Bio-imaging Analyzer (type: BAS-2500; manufactured by FUJIFILM Corporation).
(5) After the completion of the image analysis using the Bio-imaging Analyzer, […]
Thus, it was confirmed that amyloid was deposited on the slice (FIG. 6b).
The same procedures as in Example 12 were performed except using a solution of Compound 2 in a 10 mg/mL ascorbic acid as a sample solution (the radioactive concentration of the sample solution was 25 MBq/mL).
(1) Aβ1-42 (manufactured by Wako) was dissolved in phosphate buffer (pH 7.4) and shaken at 37° C. for 72 hours, to obtain 1 mg/mL of a suspension of aggregated Aβ (hereinafter referred to as amyloid suspension in the Examples).
(3) A sample solution (30 MBq/mL in radioactivity concentration, Example 24) in which Compound 4 was dissolved in a 10 mg/mL ascorbic acid-containing physiological saline solution and a sample solution (30 MBq/mL in radioactivity concentration, Example 25) in which Compound 6 was dissolved in a 10 mg/mL ascorbic acid-containing physiological saline solution were prepared. This solution was injected under thiopental anesthesia into the rat through the tail vein (dosage: 0.5 mL, dosed radioactivity: 11-15 MBq equivalent).
Thus, it was confirmed that amyloid was deposited on the slice (FIG. 12 and FIG. 13).

Substance: 2-[3′-(2″-hydroxyethoxy)phenyl]-6-[^123I]iodoimidazo[1,2-a]pyridine [Compound 4]
- Accumulation of radioactivity at sites other than amyloid injected sites: little accumulation of radioactivity was observed at sites other than the site to which amyloid was injected
- Accumulation of radioactivity in amygdaloid nucleus on the physiological saline-injected side: no significant accumulation of radioactivity

Substance: 2-[4′-(2″-hydroxyethoxy)phenyl]-6-[^123I]iodoimidazo[1,2-a]pyridine [Compound 1]
- Accumulation of radioactivity at sites other than amyloid injected sites: little radioactive accumulation at the sites other than amyloid injected sites
- Accumulation of radioactivity in amygdaloid nucleus on the physiological saline-injected side: no significant accumulation of radioactivity

Substance: 2-(4′-ethoxyphenyl)-6-[^123I]iodoimidazo[1,2-a]pyridine [Compound 2]
- Accumulation of radioactivity at sites other than amyloid injected sites: some radioactive accumulation in sites other than amyloid injected sites
- Accumulation of radioactivity in amygdaloid nucleus on the physiological saline-injected side: no significant accumulation of radioactivity

Substance: 2-[4′-(3″-hydroxypropoxy)phenyl]-6-[^123I]iodoimidazo[1,2-a]pyridine [Compound 6]
- Accumulation of radioactivity at sites other than amyloid injected sites: little accumulation of radioactivity was observed at sites other than the site to which amyloid was injected
- Accumulation of radioactivity in amygdaloid nucleus on the physiological saline-injected side: no significant accumulation of radioactivity
